Test results as given in article PMC7946975.
Results are given in words; binding and its absence hold for the method and conditions named. In cells and extracts the contact can be indirect. Some results given as binding are weak or reduced against the parent protein; the word gives no strength.

The chains behind the UniProt entries cited, without tags or fusion partners.
UniProt P42227: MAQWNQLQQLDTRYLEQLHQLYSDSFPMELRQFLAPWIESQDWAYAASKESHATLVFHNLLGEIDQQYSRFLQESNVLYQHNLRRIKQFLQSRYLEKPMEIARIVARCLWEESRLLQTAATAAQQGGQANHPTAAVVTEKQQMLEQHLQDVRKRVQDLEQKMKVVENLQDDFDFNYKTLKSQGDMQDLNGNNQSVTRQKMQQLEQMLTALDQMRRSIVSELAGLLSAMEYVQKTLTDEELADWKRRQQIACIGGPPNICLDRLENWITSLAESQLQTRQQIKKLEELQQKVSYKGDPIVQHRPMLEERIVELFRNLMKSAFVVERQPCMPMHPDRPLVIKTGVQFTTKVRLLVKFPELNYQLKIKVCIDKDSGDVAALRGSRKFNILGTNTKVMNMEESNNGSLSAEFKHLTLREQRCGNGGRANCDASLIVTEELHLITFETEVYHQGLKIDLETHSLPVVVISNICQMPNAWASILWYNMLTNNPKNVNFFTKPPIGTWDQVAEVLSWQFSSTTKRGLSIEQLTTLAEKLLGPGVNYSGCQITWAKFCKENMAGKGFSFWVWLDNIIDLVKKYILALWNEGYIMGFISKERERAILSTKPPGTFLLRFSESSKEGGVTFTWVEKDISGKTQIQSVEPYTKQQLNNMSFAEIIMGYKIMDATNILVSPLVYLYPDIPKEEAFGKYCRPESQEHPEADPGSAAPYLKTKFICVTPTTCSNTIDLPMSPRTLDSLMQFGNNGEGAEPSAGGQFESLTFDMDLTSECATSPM

Target: signal transducer and activator of transcription 3 (mouse (endogenous in MDSCs of C57BL/6 mice)) (UniProt P42227)
Assay: co-IP; lysate of tumor-derived MDSCs; precipitated with anti-STAT3 Abs or IgG Abs and Protein A/G plus-agarose beads, overnight at 4°C; TRAF6 and STAT3 detected by Western blotting

binding: binds
B1: Tumor necrosis factor receptor-associated factor 6 (protein, UniProt P70196 1-530)
chain: MSLLNCENSCGSSQSSSDCCAAMAASCSAAVKDDSVSGSASTGNLSSSFMEEIQGYDVEFDPPLESKYECPICLMALREAVQTPCGHRFCKACIIKSIRDAGHKCPVDNEILLENQLFPDNFAKREILSLTVKCPNKGCLQKMELRHLEDHQVHCEFALVNCPQCQRPFQKCQVNTHIIEDCPRRQVSCVNCAVSMAYEEKEIHDQSCPLANIICEYCGTILIREQMPNHYDLDCPTAPIPCTFSVFGCHEKMQRNHLARHLQENTQLHMRLLAQAVHNVNLALRPCDAASPSRGCRPEDPNYEETIKQLESRLVRQDHQIRELTAKMETQSMYVGELKRTIRTLEDKVAEMEAQQCNGIYIWKIGNFGMHLKSQEEERPVVIHSPGFYTGRPGYKLCMRLHLQLPTAQRCANYISLFVHTMQGEYDSHLPWPFQGTIRLTILDQSEALIRQNHEEVMDAKPELLAFQRPTIPRNPKGFGYVTFMHLEALRQGTFIKDDTLLVRCEVSTRFDMGGLRKEGFQPRSTDAGV
